The target of assay [1] is T1, Saccharomyces cerevisiae Mre11, his-tagged (S. cerevisiae) (UniProt P32829).
T1 sequence: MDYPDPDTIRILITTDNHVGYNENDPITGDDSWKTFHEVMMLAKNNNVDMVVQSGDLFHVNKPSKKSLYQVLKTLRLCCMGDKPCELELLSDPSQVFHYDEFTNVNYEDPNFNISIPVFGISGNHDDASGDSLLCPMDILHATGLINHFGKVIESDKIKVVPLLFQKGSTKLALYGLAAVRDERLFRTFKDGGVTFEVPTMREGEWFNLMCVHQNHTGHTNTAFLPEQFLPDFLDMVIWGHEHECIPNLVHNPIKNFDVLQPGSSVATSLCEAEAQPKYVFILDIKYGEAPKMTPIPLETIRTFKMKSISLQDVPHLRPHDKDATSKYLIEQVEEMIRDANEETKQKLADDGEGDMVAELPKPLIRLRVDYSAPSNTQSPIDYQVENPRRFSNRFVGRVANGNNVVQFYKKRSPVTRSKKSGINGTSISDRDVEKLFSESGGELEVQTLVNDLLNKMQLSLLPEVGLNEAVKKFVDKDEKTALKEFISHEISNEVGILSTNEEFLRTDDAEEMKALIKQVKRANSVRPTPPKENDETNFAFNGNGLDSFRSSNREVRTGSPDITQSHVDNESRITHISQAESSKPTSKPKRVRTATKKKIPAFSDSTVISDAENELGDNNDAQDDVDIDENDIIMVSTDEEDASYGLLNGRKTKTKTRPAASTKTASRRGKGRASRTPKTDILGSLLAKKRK
The experiment in a line: co-purification by sequential affinity chromatography; MRX co-expressed in Sf9; sequential NiNTA (his-Mre11) and FLAG (Xrs2-FLAG) affinity purification.

The target of assay [2] is T1, Saccharomyces cerevisiae Mre11, his-tagged (S. cerevisiae). The experiment in a line: co-purification by affinity and ion exchange chromatography; MR co-expressed in Sf9 without Xrs2; NiNTA (his-Mre11), then HiTrap SP HP and HiTrap Q HP.

No constants are given. Whether binding was seen depends on the method and setting. Some entries that bind do so weakly or less than the wild type. Sequences can lack the tags named with a protein.

B1: Saccharomyces cerevisiae Xrs2-FLAG (protein, UniProt P33301 1-854)
chain: MWVVRYQNTLEDGSISFISCCLQAFKTYSIGRSSKNPLIIKNDKSISRQHITFKWEINNSSDLKHSSLCLVNKGKLTSLNKKFMKVGETFTINASDVLKSTIIELGTTPIRIEFEWINEVWNIPPHLTQFRTMLSEYGISTEISINDIPANLMISDYPKSEDNSIRELYALVSTIPMKKSRFLMELCNTLLPTSKTNLKFDEMWNDMISNPEYNVFDFDPNILLSKFMRLNNIRVLTTIKSEPRLSSLLRTFNINLFAFDNIDSLYKYVDSLEASTEYLILTTTDKKENGKILCTIKTMLTSIIDGTLSAVINMKGASSRTLDNGKFDQISEGMSTILKTSRAPEVEASPVVSKKRKLNRRRVLPLDSLDFFAGGLSTKTLSENRSLTDAKRLNCGAESKTVISSPNIAEADEKHAPFLQNALKPTEDIGKKSGHSSPGAIIVSSPNLGTVNTSEDSLDKSLQSHKLPQPSLPEVAGIGSQTISSNSADYETAAVNSMDDAEVTKNFRVNHHQNIEQPSKNIRKLSNYSREISSPLQENCKSPVKELSIKEKSGTPHAFVEAIQETKNREVKRVKSTIVELKDEELSEEAINQLKNLAIVEPSNNLLRKSFDSEGNKTSRTTEKWENSLMEPEWHKRKNFKTFVKVRPKSKAHKEEGKNNTQSSDFIRNAAFLITRNYVPLKKYSKKDTTTKWGTEENEDMFALTEMERFGSNTFMSDNINSNTIQKRSQALNRFTNEDSSNEGEEDSFSFSRCSGTAASVQPLKNKIFITDEDDLGDIDDKSDRLNHRENNRNLFVVKEMNLRPNLSEECSKQSRHSRSATSRSRGSFGASNNGDGDDDDDDGPKFTFKRRKG
For the molecule B1, the binding entry in assay [1] is recorded as “binds”.

B2: Saccharomyces cerevisiae Rad50, untagged (protein, UniProt P12753 1-1312)
chain: MSAIYKLSIQGIRSFDSNDRETIEFGKPLTLIVGMNGSGKTTIIECLKYATTGDLPPNSKGGVFIHDPKITGEKDIRAQVKLAFTSANGLNMIVTRNIQLLMKKTTTTFKTLEGQLVAINNSGDRSTLSTRSLELDAQVPLYLGVPKAILEYVIFCHQEDSLWPLSEPSNLKKKFDEIFQAMKFTKALDNLKSIKKDMSVDIKLLKQSVEHLKLDKDRSKAMKLNIHQLQTKIDQYNEEVSEIESQLNEITEKSDKLFKSNQDFQKILSKVENLKNTKLSISDQVKRLSNSIDILDLSKPDLQNLLANFSKVLMDKNNQLRDLETDISSLKDRQSSLQSLSNSLIRRQGELEAGKETYEKNRNHLSSLKEAFQHKFQGLSNIENSDMAQVNHEMSQFKAFISQDLTDTIDQFAKDIQLKETNLSDLIKSITVDSQNLEYNKKDRSKLIHDSEELAEKLKSFKSLSTQDSLNHELENLKTYKEKLQSWESENIIPKLNQKIEEKNNEMIILENQIEKFQDRIMKTNQQADLYAKLGLIKKSINTKLDELQKITEKLQNDSRIRQVFPLTQEFQRADLEMDFQKLFINMQKNIAINNKKMHELDRRYTNALYNLNTIEKDLQDNQKSKEKVIQLLSENLPEDCTIDEYNDVLEETELSYKTALENLKMHQTTLEFNRKALEIAERDSCCYLCSRKFENESFKSKLLQELKTKTDANFEKTLKDTVQNEKEYLHSLRLLEKHIITLNSINEKIDNSQKCLEKAKEETKTSKSKLDELEVDSTKLKDEKELAESEIRPLIEKFTYLEKELKDLENSSKTISEELSIYNTSEDGIQTVDELRDQQRKMNDSLRELRKTISDLQMEKDEKVRENSRMINLIKEKELTVSEIESSLTQKQNIDDSIRSKRENINDIDSRVKELEARIISLKNKKDEAQSVLDKVKNERDIQVRNKQKTVADINRLIDRFQTIYNEVVDFEAKGFDELQTTIKELELNKAQMLELKEQLDLKSNEVNEEKRKLADSNNEEKNLKQNLELIELKSQLQHIESEISRLDVQNAEAERDKYQEESLRLRTRFEKLSSENAGKLGEMKQLQNQIDSLTHQLRTDYKDIEKNYHKEWVELQTRSFVTDDIDVYSKALDSAIMKYHGLKMQDINRIIDELWKRTYSGTDIDTIKIRSDEVSSTVKGKSYNYRVVMYKQDVELDMRGRCSAGQKVLASIIIRLALSETFGANCGVIALDEPTTNLDEENIESLAKSLHNIINMRRHQKNFQLIVITHDEKFLGHMNAAAFTDHFFKVKRDDRQKSQIEWVDINRVTY
As to B2, the binding result in assay [1] and in assay [2] was “binds” throughout.

Source of the values: paper PMC11237066.
